Data: the supplement of paper PMC7238544
Where a name gives a salt, the structure may show the parent alone. ± gives the standard deviation of the averaged measurements. The list shows a part of the results. The data scatter; read single values as rough.

Assays:
hAMSC donor 1 [1] = test: Hoechst total cell count ratio vs vehicle control; higher = more cells (less toxicity)
hAMSC donor 2 [2] = test: as above
hAMSC donor 1 [3] = test: transgenic luciferase activity (RLU/mg protein) fold change vs vehicle control (ratio); higher = more transgene expression
hAMSC donor 2 [4] = test: as above
hAMSC donor 1 [5] = test: transfection efficiency (EGFP+ cells / Hoechst count) fold change vs vehicle control (ratio); hAMSC are human adipose-derived mesenchymal stem cells given an EGFP-luciferase plasmid by lipofection; higher = enhanced transfection
hAMSC donor 2 [6] = test: as above
[7] = priming compound concentration 0.2 µM
[8] = priming compound concentration 1.7 µM
[9] = priming compound concentration 13 µM

SMILES | Hoechst total cell count ratio (hAMSC donor 1 [1]; [7]) | Hoechst total cell count ratio (hAMSC donor 1 [1]; [8]) | Hoechst total cell count ratio (hAMSC donor 1 [1]; [9]) | Hoechst total cell count ratio (hAMSC donor 2 [2]; [7]) | Hoechst total cell count ratio (hAMSC donor 2 [2]; [8]) | Hoechst total cell count ratio (hAMSC donor 2 [2]; [9]) | transgenic luciferase activity (hAMSC donor 1 [3]; [7]) | transgenic luciferase activity (hAMSC donor 1 [3]; [8]) | transgenic luciferase activity (hAMSC donor 1 [3]; [9]) | transgenic luciferase activity (hAMSC donor 2 [4]; [7]) | transgenic luciferase activity (hAMSC donor 2 [4]; [8]) | transgenic luciferase activity (hAMSC donor 2 [4]; [9]) | transfection efficiency (hAMSC donor 1 [5]; [7]) | transfection efficiency (hAMSC donor 1 [5]; [8]) | transfection efficiency (hAMSC donor 1 [5]; [9]) | transfection efficiency (hAMSC donor 2 [6]; [7]) | transfection efficiency (hAMSC donor 2 [6]; [8]) | transfection efficiency (hAMSC donor 2 [6]; [9])
CN1C(=O)CN=C(c2ccccc2)c2cc(Cl)ccc21 [Diazepam] | 1.18 ± 0.13 | 1.07 ± 0.13 | 1.07 ± 0.15 | 1.3 ± 0.14 | 0.94 ± 0.019 | 1.56 ± 0.26 | 0.414 ± 0.096 | 0.612 ± 0.027 | 1.63 ± 1.9 | 0.663 ± 0.16 | 0.91 ± 0.079 | 0.991 ± 0.28 | 1.16 ± 0.55 | 1.33 ± 0.19 | 1.16 ± 0.32 | 0.957 ± 0.14 | 1.54 ± 0.28 | 1.07 ± 0.23
CCCCCCCCCOc1ccc2[nH]cc(CCN)c2c1 [5-Nonyloxytryptamine hydrochloride] | 1.12 ± 0.045 | 1.09 ± 0.18 | 0.442 ± 0.21 | 0.93 ± 0.31 | 0.956 ± 0.11 | 0.11 ± 0.014 | 0.7 ± 0.13 | 1.2 ± 0.28 | 0.604 ± 0.15 | 0.699 ± 0.089 | 1.486 ± 0.0041 | 0.00323 ± 0.0024 | 1.3 ± 0.62 | 1.15 ± 0.13 | 1.95 ± 0.95 | 1.55 ± 0.49 | 1.7 ± 0.24 | 0.104 ± 0.1
C[C@]12CC[C@H](O)CC1=CC[C@@H]1[C@@H]2CC[C@@]2(C)[C@H]1CC[C@]2(C)O [Methylandrostenediol] | 1.12 ± 0.03 | 1.17 ± 0.15 | 1.21 ± 0.14 | 1.07 ± 0.14 | 0.842 ± 0.15 | 1.28 ± 0.14 | 0.675 ± 0.16 | 1.02 ± 0.39 | 1.39 ± 0.031 | 0.67 ± 0.17 | 0.72 ± 0.1 | 0.726 ± 0.19 | 1.07 ± 0.48 |  | 0.902 ± 0.36 | 1.23 ± 0.3 | 1.39 ± 0.11 | 0.997 ± 0.11
c1ccc2c(c1)Nc1ccccc1S2 [Phenothiazine] | 1.13 ± 0.14 | 1.26 ± 0.082 | 1.15 ± 0.056 | 0.804 ± 0.079 | 0.707 ± 0.055 | 1.17 ± 0.097 | 0.713 ± 0.39 | 0.869 ± 0.42 | 0.575 ± 0.19 | 0.471 ± 0.066 | 1.13 ± 0.42 | 1.77 ± 0.29 | 1.42 ± 0.91 | 1 ± 0.54 | 0.885 ± 0.17 | 1.485 ± 0.012 | 1.4 ± 0.059 | 1.33 ± 0.1
COc1ccc(CCN)cc1OC [Homoveratrylamine] | 1.03 ± 0.061 | 1.21 ± 0.087 | 0.84 ± 0.11 | 1.19 ± 0.16 | 1 ± 0.16 | 1.19 ± 0.33 | 0.707 ± 0.36 | 0.683 ± 0.29 |  | 0.772 ± 0.13 | 0.888 ± 0.11 | 0.91 ± 0.26 | 1.73 ± 0.23 | 1.42 ± 0.47 | 1.56 ± 0.26 | 0.971 ± 0.18 | 1.35 ± 0.027 | 1.42 ± 0.41
O=C(O)C(Cl)Cl [Dichloroacetic acid] | 1.22 ± 0.089 | 1.18 ± 0.077 | 1.09 ± 0.17 | 1.1 ± 0.13 | 1.41 ± 0.036 | 1.21 ± 0.12 |  | 0.527 ± 0.32 | 0.721 ± 0.088 | 0.591 ± 0.062 | 0.889 ± 0.056 | 0.913 ± 0.26 | 1.04 ± 0.13 | 1.04 ± 0.29 | 1.35 ± 0.27 | 0.929 ± 0.21 | 0.922 ± 0.044 | 1.09 ± 0.16
CN[C@@H]1C[C@@H](c2ccc(Cl)c(Cl)c2)c2ccccc21 [Indatraline hydrochloride] | 1.12 ± 0.048 | 1.07 ± 0.06 | 0.86 ± 0.0035 | 0.91 ± 0.038 | 1.12 ± 0.058 | 0.82 ± 0.055 | 0.935 ± 0.2 | 1.19 ± 0.54 | 0.159 ± 0.13 | 0.927 ± 0.4 | 0.6 ± 0.036 | 0.741 ± 0.11 | 0.742 ± 0.07 | 0.91 ± 0.088 | 0.979 ± 0.17 | 1.14 ± 0.25 | 0.733 ± 0.12 | 0.8474 ± 0.005
C[C@]12Cc3c[nH]nc3C[C@@H]1CC[C@@H]1[C@@H]2CC[C@@]2(C)[C@H]1CC[C@]2(C)O [Stanozolol] | 1.35 ± 0.14 | 1.21 ± 0.1 | 1.24 ± 0.19 | 1.07 ± 0.028 | 1.08 ± 0.031 | 1.22 ± 0.2 |  | 1.06 ± 0.25 | 0.399 ± 0.14 | 0.479 ± 0.14 | 1.12 ± 0.42 | 0.699 ± 0.21 | 1.06 ± 0.059 | 1.31 ± 0.16 | 1.01 ± 0.068 | 0.823 ± 0.18 | 1.31 ± 0.13 | 0.909 ± 0.17
Oc1cc(Cl)ccc1Oc1ccc(Cl)cc1Cl [Triclosan] | 1.3 ± 0.16 | 1.32 ± 0.15 | 1.03 ± 0.18 | 1.07 ± 0.094 | 0.855 ± 0.14 | 0.94 ± 0.3 | 0.394 ± 0.21 |  | 1.2 ± 1.1 | 0.792 ± 0.15 | 0.659 ± 0.35 |  | 0.944 ± 0.11 | 1.28 ± 0.21 | 1.13 ± 0.37 | 1.03 ± 0.42 | 1.16 ± 0.091 | 1.33 ± 0.18
C[C@]12CC[C@H](O)CC1=CC[C@@H]1[C@@H]2CC[C@]2(C)C(=O)CC[C@@H]12 [Dehydroepiandrosterone] | 1.32 ± 0.23 | 1.27 ± 0.086 | 1.12 ± 0.15 | 1.07 ± 0.06 | 1.28 ± 0.025 | 0.944 ± 0.17 | 0.768 ± 0.15 | 1.17 ± 0.8 |  | 0.662 ± 0.23 | 0.575 ± 0.13 | 0.887 ± 0.34 | 0.893 ± 0.3 | 0.814 ± 0.058 | 1.03 ± 0.23 | 1.27 ± 0.21 | 1.07 ± 0.16 | 1.23 ± 0.2
CCOC(=O)C1(c2ccccc2)CCN(CCC(C#N)(c2ccccc2)c2ccccc2)CC1 [Diphenoxylate hydrochloride] | 1.36 ± 0.21 | 1.06 ± 0.21 | 1.11 ± 0.16 | 1.13 ± 0.063 | 1.36 ± 0.34 | 1.45 ± 0.31 |  | 1.07 ± 0.23 | 0.537 ± 0.11 | 0.624 ± 0.21 | 1.24 ± 0.082 | 0.663 ± 0.18 | 1.05 ± 0.29 | 1.3 ± 0.1 | 1.07 ± 0.12 | 0.871 ± 0.14 | 1.09 ± 0.067 | 0.78 ± 0.33
COC(=O)N1CCN(C(=O)Cc2ccc(Cl)c(Cl)c2)C(CN2CCCC2)C1 (configuration not stated) | 1.55 ± 0.22 | 1.25 ± 0.068 | 1.35 ± 0.26 | 1.07 ± 0.23 | 1.13 ± 0.06 | 1.36 ± 0.084 |  | 0.794 ± 0.3 | 0.373 ± 0.083 | 0.632 ± 0.033 | 0.834 ± 0.042 | 0.73 ± 0.15 | 0.79 ± 0.29 | 1.55 ± 0.6 | 1.16 ± 0.11 | 0.988 ± 0.29 | 1.08 ± 0.13 | 1.02 ± 0.15

Two of these compounds, set out differently.
SMILES	Hoechst total cell count ratio (hAMSC donor 1 [1]; [7])	Hoechst total cell count ratio (hAMSC donor 1 [1]; [8])	Hoechst total cell count ratio (hAMSC donor 1 [1]; [9])	Hoechst total cell count ratio (hAMSC donor 2 [2]; [7])	Hoechst total cell count ratio (hAMSC donor 2 [2]; [8])	Hoechst total cell count ratio (hAMSC donor 2 [2]; [9])	transgenic luciferase activity (hAMSC donor 1 [3]; [7])	transgenic luciferase activity (hAMSC donor 1 [3]; [8])	transgenic luciferase activity (hAMSC donor 1 [3]; [9])	transgenic luciferase activity (hAMSC donor 2 [4]; [7])	transgenic luciferase activity (hAMSC donor 2 [4]; [8])	transgenic luciferase activity (hAMSC donor 2 [4]; [9])	transfection efficiency (hAMSC donor 1 [5]; [7])	transfection efficiency (hAMSC donor 1 [5]; [8])	transfection efficiency (hAMSC donor 1 [5]; [9])	transfection efficiency (hAMSC donor 2 [6]; [7])	transfection efficiency (hAMSC donor 2 [6]; [8])	transfection efficiency (hAMSC donor 2 [6]; [9])
CN[C@@H]1C[C@@H](c2ccc(Cl)c(Cl)c2)c2ccccc21 [Indatraline hydrochloride]	1.12 ± 0.048	1.07 ± 0.06	0.86 ± 0.0035	0.91 ± 0.038	1.12 ± 0.058	0.82 ± 0.055	0.935 ± 0.2	1.19 ± 0.54	0.159 ± 0.13	0.927 ± 0.4	0.6 ± 0.036	0.741 ± 0.11	0.742 ± 0.07	0.91 ± 0.088	0.979 ± 0.17	1.14 ± 0.25	0.733 ± 0.12	0.8474 ± 0.005
C[C@]12Cc3c[nH]nc3C[C@@H]1CC[C@@H]1[C@@H]2CC[C@@]2(C)[C@H]1CC[C@]2(C)O [Stanozolol]	1.35 ± 0.14	1.21 ± 0.1	1.24 ± 0.19	1.07 ± 0.028	1.08 ± 0.031	1.22 ± 0.2		1.06 ± 0.25	0.399 ± 0.14	0.479 ± 0.14	1.12 ± 0.42	0.699 ± 0.21	1.06 ± 0.059	1.31 ± 0.16	1.01 ± 0.068	0.823 ± 0.18	1.31 ± 0.13	0.909 ± 0.17
